Publication doi:10.1101/843821
No constants are given. Whether binding was seen depends on the method and setting. Binding calls can cover weak binding; strength is not graded here. For part of these data: In cells and extracts the contact can be indirect.

How the values were obtained:
[1] = target: His6-3×Flag fused Mmp-RpoL (Mmp-RpoL-HF) (Methanococcus maripaludis); experiment: pull-down
[2] = target: His6-3×Flag fused Mmp-RpoL (Mmp-RpoL-HF) (Methanococcus maripaludis); experiment: tandem affinity purification
[3] = target: His6-3×Flag fused Mmp-RpoL (Mmp-RpoL-HF) (Methanococcus maripaludis); experiment: co-IP

Measured: binding

B1: Mmp-aCPSF1 (enzyme, UniProt Q6LZD5 1-635)
chain: MSAEDILNEIKAAVINKAPGNAVITDVEFEGSEVVIYAKNPELFSNNLIKEFARDFRKRLAIRPDPSVLVEPDIAKDKILKIVPEDAEITNCIFDANTGEVIIESKKPGLVIGKEGSTLEDIKKAIQWAPKPVRTPPIPSDTIKAIRATMYRERADVKDILRRIGRRIHRDVRLRDDSWVRTSFLGGSREVGRTCLYHQTPESRILVDCGINIAVEDEKAFPHFDAPEFSIEEIDAVVVTHAHLDHCGFIPGLFRYGYDGPVYCTKPTRDLMTLLQKDYVDITEKEGKNVPYSSKDIKNCIKHTIPLDYGVTTDIAPAIKLTMHNAGHILGSAIAHCHVGDGLYNVAYTGDIKFEASRLLEPAVCQFPRLETLIIESTYGGYDDVLPERDETEKEFLRVIAETIARKGKAIIPVFGIGRAQELMLVLEEGYNQGIFNAPVYLDGMIWEATAIHTAYPEYLSKNMRNRIFHEGDNPFLSEVFKKVKNTNDRRNIMDSDEPGIILTTSGMLSGGPSVEYFKNLADDEKNSIVFVGYQSEGTLGRKIQKGFKEIPLMGKNGRSKAVKVNLSVHTLEGFSGHSDRKQLIKYLRKLKPIPDRILTVHGEVSKCIDLASTAYKLFKKETKAPMNLDSIRLR
binds: all assays above
